Construct, isoform or probe ends are uncertain for at least one entry. For some assays here: No signal at the amounts used counts as a negative. For some assays here: At least one result comes from cells or an extract, where the contact may be indirect.
Experiments:
[1] = biological target: FOXO4 A3 T32A,S197A,S262A (UniProt P98177); experiment: EMSA supershift; conditions: 500-fold mutant competitor N2 present; EMSA: 10% glycerol, 12 mM HEPES pH 7.9, 4 mM Tris-HCl pH 7.9, 60 mM KCl, 1 mM DTT, 0.6 mg/ml BSA, 0.5 ug poly(dI-dC), 20 ul, 30 min at 25 C; supershift 1 h at 4 C; protein in a lysate after overexpression; label: 32P
FOXA2 (HNF-3beta) = experiment: EMSA; conditions: 500-fold mutant competitor N2 present; EMSA: 10% glycerol, 12 mM HEPES pH 7.9, 4 mM Tris-HCl pH 7.9, 60 mM KCl, 1 mM DTT, 0.6 mg/ml BSA, 0.5 ug poly(dI-dC), 20 ul, 30 min at 25 C; supershift 1 h at 4 C; protein in a lysate after overexpression; label: 32P
FOXO4 = FOXO4 (UniProt P98177); experiment: EMSA; conditions: 500-fold mutant competitor N2 present; EMSA: 10% glycerol, 12 mM HEPES pH 7.9, 4 mM Tris-HCl pH 7.9, 60 mM KCl, 1 mM DTT, 0.6 mg/ml BSA, 0.5 ug poly(dI-dC), 20 ul, 30 min at 25 C; supershift 1 h at 4 C; protein in a lysate after overexpression; label: 32P
FOXO3 = FOXO3 (UniProt O43524); experiment: EMSA; conditions: 500-fold mutant competitor N2 present; EMSA: 10% glycerol, 12 mM HEPES pH 7.9, 4 mM Tris-HCl pH 7.9, 60 mM KCl, 1 mM DTT, 0.6 mg/ml BSA, 0.5 ug poly(dI-dC), 20 ul, 30 min at 25 C; supershift 1 h at 4 C; protein in a lysate after overexpression; label: 32P
GST = experiment: EMSA; conditions: EMSA: 10% glycerol, 12 mM HEPES pH 7.9, 4 mM Tris-HCl pH 7.9, 60 mM KCl, 1 mM DTT, 0.6 mg/ml BSA, 0.5 ug poly(dI-dC), 20 ul, 30 min at 25 C; supershift 1 h at 4 C; recombinant protein; label: 32P

Amino acid sequences for entries named in this document (tags omitted). A change or cut given only in a name is not applied to a line headed by its entry.
UniProt P98177, whole entry T32A/S197A/S262A: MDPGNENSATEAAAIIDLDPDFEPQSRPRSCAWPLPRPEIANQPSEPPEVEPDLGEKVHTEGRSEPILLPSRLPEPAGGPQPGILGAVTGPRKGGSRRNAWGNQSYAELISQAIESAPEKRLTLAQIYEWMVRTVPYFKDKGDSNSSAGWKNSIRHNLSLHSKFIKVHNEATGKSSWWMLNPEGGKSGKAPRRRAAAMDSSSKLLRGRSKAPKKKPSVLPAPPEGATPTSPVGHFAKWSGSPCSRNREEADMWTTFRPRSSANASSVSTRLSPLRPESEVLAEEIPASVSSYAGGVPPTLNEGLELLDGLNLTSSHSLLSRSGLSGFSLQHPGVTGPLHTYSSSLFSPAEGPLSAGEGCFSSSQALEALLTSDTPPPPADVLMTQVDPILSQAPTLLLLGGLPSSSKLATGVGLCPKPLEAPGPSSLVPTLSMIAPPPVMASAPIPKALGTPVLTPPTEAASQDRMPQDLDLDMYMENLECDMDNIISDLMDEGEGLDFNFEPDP
UniProt O43524: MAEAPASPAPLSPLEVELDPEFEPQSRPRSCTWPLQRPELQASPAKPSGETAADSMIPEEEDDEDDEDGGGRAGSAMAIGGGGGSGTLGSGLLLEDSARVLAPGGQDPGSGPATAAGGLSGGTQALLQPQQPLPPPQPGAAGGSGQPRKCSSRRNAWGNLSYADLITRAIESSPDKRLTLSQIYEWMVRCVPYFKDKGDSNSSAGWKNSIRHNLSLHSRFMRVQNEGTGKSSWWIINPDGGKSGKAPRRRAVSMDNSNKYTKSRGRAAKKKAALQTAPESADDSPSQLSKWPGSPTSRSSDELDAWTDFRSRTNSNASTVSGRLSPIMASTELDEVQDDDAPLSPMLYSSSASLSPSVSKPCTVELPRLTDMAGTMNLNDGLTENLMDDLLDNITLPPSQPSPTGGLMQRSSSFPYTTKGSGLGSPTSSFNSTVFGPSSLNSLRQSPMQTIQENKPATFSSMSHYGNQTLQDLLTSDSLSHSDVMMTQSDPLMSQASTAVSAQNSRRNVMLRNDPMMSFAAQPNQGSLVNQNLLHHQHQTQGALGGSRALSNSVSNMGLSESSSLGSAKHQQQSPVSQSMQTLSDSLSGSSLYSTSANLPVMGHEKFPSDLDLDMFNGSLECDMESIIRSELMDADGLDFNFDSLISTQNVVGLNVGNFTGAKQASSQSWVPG

Sequence: GGGGAGGGAGGTAAACAAGATGGCGGC (double strand) [LKB1 FOXO site oligo WT]
- binding result [1]: binds
- binding result (FOXA2 (HNF-3beta)): binds
- binding result (FOXO4): binds
- binding result (FOXO3): binds
- binding result (GST): no binding
